This note sets out measurements from patent US5456923A, “Method of manufacturing solid dispersion” (priority 1991, dated 1995).

≈ marks a conversion by molar mass, not a printed value.

This series can be described thus: physchem. As to conditions: jp test solution 2.

One may read the solubility as the dissolved amount per volume that the medium holds. High values mean much dissolved substance, low ones little dissolved substance. `COC(=O)C1=C(C)NC(C)=C(C(=O)OC)C1c1ccccc1[N+](=O)[O-]` [nifedipine] yielded a solubility at 24 h of 5.6 µg/mL (≈ 16.2 µM).
